From article PMC4042850 come the findings set out here.

Chains of the proteins cited; added tags and fusions are not shown. A line that says so, or that is headed by a name, gives the form on record, which may keep a tag or linker. Residues count along the entry.
GST-tagged titin A168-TK (residues 31854–32492) (Q8WZ42, residues 31854-32492): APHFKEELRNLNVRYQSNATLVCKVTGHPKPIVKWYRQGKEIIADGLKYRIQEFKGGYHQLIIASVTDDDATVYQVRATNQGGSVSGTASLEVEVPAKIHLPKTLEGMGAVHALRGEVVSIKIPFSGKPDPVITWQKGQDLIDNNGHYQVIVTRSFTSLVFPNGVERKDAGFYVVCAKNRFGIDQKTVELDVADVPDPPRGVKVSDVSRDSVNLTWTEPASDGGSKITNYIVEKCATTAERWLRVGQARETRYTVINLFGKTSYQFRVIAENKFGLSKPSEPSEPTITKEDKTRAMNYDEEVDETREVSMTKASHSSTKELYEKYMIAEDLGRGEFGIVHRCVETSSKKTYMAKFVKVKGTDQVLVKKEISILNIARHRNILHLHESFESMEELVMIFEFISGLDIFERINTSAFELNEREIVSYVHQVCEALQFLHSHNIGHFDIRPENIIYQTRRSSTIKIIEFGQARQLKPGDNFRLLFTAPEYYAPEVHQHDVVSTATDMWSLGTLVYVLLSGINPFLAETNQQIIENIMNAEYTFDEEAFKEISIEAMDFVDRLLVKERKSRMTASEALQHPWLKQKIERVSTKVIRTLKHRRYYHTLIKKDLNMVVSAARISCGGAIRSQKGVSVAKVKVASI
GST-tagged titin A168–170 (residues 31854–32155) (Q8WZ42, residues 31854-32155): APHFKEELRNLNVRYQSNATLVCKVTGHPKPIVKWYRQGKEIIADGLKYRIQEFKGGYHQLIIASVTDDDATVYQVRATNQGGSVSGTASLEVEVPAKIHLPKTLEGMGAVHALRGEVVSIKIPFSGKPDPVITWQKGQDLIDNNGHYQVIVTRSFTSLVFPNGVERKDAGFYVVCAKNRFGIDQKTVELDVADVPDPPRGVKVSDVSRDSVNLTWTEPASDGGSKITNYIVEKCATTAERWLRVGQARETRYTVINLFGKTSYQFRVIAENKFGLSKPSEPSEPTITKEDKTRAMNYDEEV
GST-tagged titin kinase (TK) (Q8WZ42, residues 32172-32492): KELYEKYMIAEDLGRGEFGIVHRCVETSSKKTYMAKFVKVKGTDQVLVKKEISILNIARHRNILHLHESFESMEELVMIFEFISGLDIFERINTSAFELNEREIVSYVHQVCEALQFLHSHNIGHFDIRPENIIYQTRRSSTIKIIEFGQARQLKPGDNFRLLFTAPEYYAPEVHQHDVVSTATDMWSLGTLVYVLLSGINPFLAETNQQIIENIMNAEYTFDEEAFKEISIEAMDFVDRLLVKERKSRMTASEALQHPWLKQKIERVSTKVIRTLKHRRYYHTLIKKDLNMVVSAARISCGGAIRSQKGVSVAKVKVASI
UniProt Q38HM4: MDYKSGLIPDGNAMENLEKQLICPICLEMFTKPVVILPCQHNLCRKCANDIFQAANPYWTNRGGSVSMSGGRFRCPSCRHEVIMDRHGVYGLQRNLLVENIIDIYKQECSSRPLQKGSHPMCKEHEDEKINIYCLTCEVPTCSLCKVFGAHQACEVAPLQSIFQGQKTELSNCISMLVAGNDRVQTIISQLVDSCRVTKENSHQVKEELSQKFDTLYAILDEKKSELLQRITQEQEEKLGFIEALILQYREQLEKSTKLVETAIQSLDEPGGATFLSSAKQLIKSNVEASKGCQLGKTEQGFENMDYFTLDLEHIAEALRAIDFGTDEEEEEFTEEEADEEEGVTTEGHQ

No constants are given. Whether binding was seen depends on the method and setting. In cells and extracts the contact can be indirect. Some results given as binding are weak or reduced against the parent protein; the word gives no strength.

Common to all, as to assay: pull-down; 50 µg GST or GST-titin fragment immobilised on 30 µl Glutathione-Sepharose beads; 1 ml diluted mouse quadriceps extract, 16 h at 4°C, PBS, 0.1% NP40; Western blot with a MuRF1-specific antibody; only the target purified
(In western blotting, separated proteins are transferred to a membrane and probed.)

The target in experiment [1] is GST-tagged titin A168-TK (residues 31854–32492) (human) (UniProt Q8WZ42).
The target of experiment [2] is GST-tagged titin A168–170 (residues 31854–32155) (human) (UniProt Q8WZ42).
The target of experiment [3] is GST-tagged titin kinase (TK) (human) (UniProt Q8WZ42).

For “endogenous MuRF1 (mouse skeletal muscle) (from UniProt Q38HM4 1-350)”, the binding result was “binds” in experiment [1], “binds” in experiment [2] and “no binding (tested: 50 µg bait on beads)” in experiment [3].
